This passage reports binding results from publication PMC3097230.

In this assay the target is endogenous p130Cas (African green monkey (endogenous in Cos7)). Nature of the assay: co-IP; Cos7 cells transfected with GFP-dynamin I, with or without 100 ng/ml EGF for the indicated times; lysate immunoprecipitated with anti-p130Cas antibody (Cas2), immunoblot with anti-GFP.

These are yes or no findings as the source states them, for the method shown. Binding seen in cells or lysates may run through a third protein. A result given as binding can be weak or reduced; the word gives no strength. Where a sequence is shown, tags or fusion partners need not be part of it.

B1: GFP-dynamin I (protein, UniProt Q05193 1-864)
chain: MGNRGMEDLIPLVNRLQDAFSAIGQNADLDLPQIAVVGGQSAGKSSVLENFVGRDFLPRGSGIVTRRPLVLQLVNATTEYAEFLHCKGKKFTDFEEVRLEIEAETDRVTGTNKGISPVPINLRVYSPHVLNLTLVDLPGMTKVPVGDQPPDIEFQIRDMLMQFVTKENCLILAVSPANSDLANSDALKVAKEVDPQGQRTIGVITKLDLMDEGTDARDVLENKLLPLRRGYIGVVNRSQKDIDGKKDITAALAAERKFFLSHPSYRHLADRMGTPYLQKVLNQQLTNHIRDTLPGLRNKLQSQLLSIEKEVEEYKNFRPDDPARKTKALLQMVQQFAVDFEKRIEGSGDQIDTYELSGGARINRIFHERFPFELVKMEFDEKELRREISYAIKNIHGIRTGLFTPDMAFETIVKKQVKKIREPCLKCVDMVISELISTVRQCTKKLQQYPRLREEMERIVTTHIREREGRTKEQVMLLIDIELAYMNTNHEDFIGFANAQQRSNQMNKKKTSGNQDEILVIRKGWLTINNIGIMKGGSKEYWFVLTAENLSWYKDDEEKEKKYMLSVDNLKLRDVEKGFMSSKHIFALFNTEQRNVYKDYRQLELACETQEEVDSWKASFLRAGVYPERVGDKEKASETEENGSDSFMHSMDPQLERQVETIRNLVDSYMAIVNKTVRDLMPKTIMHLMINNTKEFIFSELLANLYSCGDQNTLMEESAEQAQRRDEMLRMYHALKEALSIIGDINTTTVSTPMPPPVDDSWLQVQSVPAGRRSPTSSPTPQRRAPAVPPARPGSRGPAPGPPPAGSALGGAPPVPSRPGASPDPFGPPPQVPSRPNRAPPGVPSRSGQASPSRPESPRPPFDL
As for B1, the binding result is “binds”.
